Data from patent publication EP0906335B1, “EBV TYPE B CTL EPITOPES” (THE COUNCIL OF THE QUEENSLAND INSTITUTE OF MEDICAL RESEARCH, priority 1996, dated 2008).
Part of at least one peptide drawing is inferred or uncertain, most often the ends. Ends that are not written are not given here.

Assays:
autologous PHA blasts = experiment: CTL assay of type B specific culture B5 against overlapping EBNA-6B peptides (epitope mapping); type: cell-based; details: peptides preincubated with autologous PHA blasts; Fig. 3a, 3b
Protocol: Assessment of peptide specific activity.
The type B specific culture B5 recognised the peptide corresponding to EBNA-6B residues 210-229 (peptide 12 of the EBNA-6B set) when assayed against individual 20-mer overlapping peptides preincubated with autologous PHA blasts (Fig. 3a). […] The corresponding peptide from the type A overlapping sequence was not recognised by this culture, thus confirming the type B specificity of these T cells.

PBL = experiment: Limiting dilution cultures: epitope specific CTL precursor frequency; details: PBL stimulated with irradiated autologous type B LCLs; cultures assayed 12 weeks later

Sequence	recognition by type B specific culture B5 (autologous PHA blasts)	frequency (T cell precursors, epitope specific activity) (PBL)
QNAARTLNTF	nonreactive	
QNGALAINTF	minimal epitope	1/16395
